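Over two days of treatment, Rh30 pediatric muscle-tumor cells were checked for survival using a luminescent ATP-based viability readout.
Compounds ran as dilution series reaching 46 µM at the top, from about 0.78 nM for the 11-point MIPE set.
The number is the fitted AC50 potency for loss of cell viability; a lower value means a more potent cytotoxic effect.
Calls come from curve class and an activity score: actives score 40 to 100, inconclusives 1 to 39 (weak, partial, poorly fitted or top-dose-only curves), and inactives score 0.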

Values are in nM.
All entries here are filed as inconclusive.
Only part of the assay is shown, chiefly results filed as inconclusive.
Potencies fitted to partial, single-point or poorly fitting curves are rough.
Activity scores are not listed here.

With Cc1ccc(C(=O)c2cc(O)c(O)c([N+](=O)[O-])c2)cc1 the assay gave fitted potency 5258 nM (cytotoxic, partial curve, poor fit).
With COc1ccc2c(c1)CC[C@H]1[C@@H]2CC[C@]2(C)[C@@H](NCCCCCCN3C(=O)C=CC3=O)CC[C@H]12 the assay gave fitted potency 4686 nM (cytotoxic, partial curve, poor fit).
With CC(=O)O[C@]1(C(C)=O)CC[C@@H]2[C@@H]3C[C@H](C)C4=CC(=O)CC[C@]4(C)[C@H]3CC[C@@]21C the assay gave fitted potency 18654 nM (cytotoxic, partial curve).
With O=C(NCC1CCCCN1)c1cc(OCC(F)(F)F)ccc1OCC(F)(F)F (centres unmarked) the assay gave fitted potency 29565 nM (cytotoxic, single point).
With CCN(CC)CCOc1ccc(Nc2ncc3cc(-c4c(Cl)cccc4Cl)c(=O)n(C)c3n2)cc1 the assay gave fitted potency 2957 nM (cytotoxic, partial curve).
With O=C(Nc1cc2cc[nH]c2cn1)c1ccccc1 the assay gave fitted potency 18654 nM (cytotoxic, partial curve).
With O=c1c(O)c(-c2ccc(O)c(O)c2)oc2cc(O)ccc12 the assay gave fitted potency 16626 nM (cytotoxic, partial curve).
With CCCS(=O)c1ccc2nc(NC(=O)OC)[nH]c2c1 (centres unmarked) the assay gave fitted potency 14963 nM (cytotoxic, single point).
With Cc1csc(NC(=O)c2sc3nc4c(c(C(F)(F)F)c3c2N)CCC4)n1 the assay gave fitted potency 16626 nM (cytotoxic, partial curve).
With O=C(Nc1ccccc1Br)N[C@@H]1CCN(c2ccc(C(F)(F)F)cn2)C1 the assay gave fitted potency 20930 nM (cytotoxic, partial curve, poor fit).
With CO[C@H]1C[C@@H]2CC[C@@H](C)[C@@](O)(O2)C(=O)C(=O)N2CCCC[C@@H]2C(=O)O[C@H]([C@H](C)C[C@@H]2CC[C@H](OC(=O)C(C)(CO)CO)[C@H](OC)C2)CC(=O)[C@H](C)C=C(C)[C@@H](O)[C@@H](OC)C(=O)[C@H](C)C[C@H](C)C=CC=CC=C1C the assay gave fitted potency 9350 nM (cytotoxic, partial curve, poor fit).
With Cn1c(=O)c(Oc2ccc(F)cc2F)cc2cnc(NC3CCOCC3)nc21 the assay gave fitted potency 3722 nM (cytotoxic, partial curve, poor fit).
With CC(C)(C)c1ccc(O)c(O)c1 the assay gave fitted potency 38570 nM (cytotoxic, single point).
With COCCOc1nc(-c2ccc(Cl)c(Cl)c2)n(-c2ccc(NC(=O)CCl)cc2)n1 the assay gave fitted potency 11770 nM (cytotoxic, partial curve, poor fit).
With CC[N+](CC)(CC)CCOc1ccc(/C=C/c2ccccc2)cc1 the assay gave fitted potency 4732 nM (cytotoxic, partial curve, poor fit).

2 of the entries, repeated:

compound,fitted potency (nM),curve
CCN(CC)CCOc1ccc(Nc2ncc3cc(-c4c(Cl)cccc4Cl)c(=O)n(C)c3n2)cc1,2957,"cytotoxic, partial curve"
O=c1c(O)c(-c2ccc(O)c(O)c2)oc2cc(O)ccc12,16626,"cytotoxic, partial curve"

Source: PubChem BioAssay AID1347107 (NCATS, 2019).